# Record: PubChem BioAssay AID652272 (Drosophila RNAi Screening Center, 2013)
# Purpose: 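Finding fly genes that regulate Hedgehog signal transduction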 (primary screen)
# System: Drosophila clone 8 (Cl8) cells
# Reagent: long dsRNA against Drosophila genes
# Read-out: 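Firefly light from a Hedgehog-responsive ptc promoter reporter and Renilla reference light, both read on a plate reader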
# Direction: firefly Hh reporter signal: higher = more ptc reporter light; Renilla reference signal: higher = more Renilla control light
# Call rule: 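Hit when the z-score averaged over two replicates is under -2 or over +3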
# Meaning of the calls: active = hit: reporter lowered or raised; inactive = not a hit
# The deposit covers about 21,000 reagents; shown is an unselected part of those with a known target gene and a result. Of all reagents, 503 (2.4%) were called active. 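Raw plate light values, not normalised; calls rest on replicate z-scores that were not deposited; hits include reporter decreases as well as increases.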 A number with no mark means an inactive call. The record does not give: the amount of reagent, the time to read-out.
gene,dsRNA,"firefly Hh reporter signal, replicate 1","firefly Hh reporter signal, replicate 2","firefly Hh reporter signal, replicate 3","Renilla reference signal, replicate 1","Renilla reference signal, replicate 2"
CG4960,DRSC15684,5.51e5,85586,,31284,3235
rut (rutabaga),DRSC20367,22496 (active),31954,,1808,1421
IleRS (Isoleucyl-tRNA synthetase),DRSC11667,1.36e5,1.13e5,,6022,4887
fd96Ca (forkhead domain 96Ca),DRSC16946,4.96e5,69413,,24713,2193
PIG-G (Phosphatidylinositol glycan anchor biosynthesis class G),DRSC06823,1.64e5,1.14e5,,5341,2327
CG12826,DRSC06175,1.05e5,47036,,2152,2981
CG15115,DRSC06537,6.76e5,1.48e5,,6368,6368
CG15345 (retired record),DRSC18030,1.34e5,7.65e5,3.96e5,4700,5035
CG5255,DRSC15754,70009,84569,,1811,6569
Fntb (Farnesyl transferase beta subunit),DRSC15244,1.05e5,77876,,4098,2674
rgr (regular),DRSC06487,1.07e5,97113,,5175,3847
rgr (regular),DRSC07229,59403,45296,,2886,1844
Peritrophin-A (Peritrophin A),DRSC20570,1.25e5,1.28e5,,2967,2993
Tbh (Tyramine beta hydroxylase),DRSC18723,86877,1.51e5,,3175,5865
ppk30 (pickpocket 30),DRSC15302,75820,81386,,2688,2096
Hr39 (Hormone receptor-like in 39),DRSC03346,62898,58422,,3162,2420
ERp60 (Endoplasmic reticulum p60),DRSC07309,69766,64331,,2466,2699
bdg (bedraggled),DRSC07136,52602,74464,,3180,3105
CG10904,DRSC04084,1.08e5,68167,,3107,5639
atms (antimeros),DRSC12310,1.92e5,1.53e5,,4284,2713
gskt (gasket),DRSC14056,4.80e5,2.09e5,,25552,3824
Hsp67Ba (Heat shock gene 67Ba),DRSC11191,40768,30277,44629,3497,3476
sc (scute),DRSC18830,57195,1.75e5,,1212,7376
CG4586,DRSC18373,1.05e5,1.05e5,,2493,2704
CG14154,DRSC10156,62777,40828,61560,2757,4198
Obp99c (Odorant-binding protein 99c),DRSC16262,92413,1.08e5,,2390,3163
CG12917,DRSC06231,87728,52954,,2633,4754
CG14731,DRSC14952,1.60e5,1.65e5,,5205,5110
Rcd4 (Reduction in Cnn dots 4),DRSC02597,98009,67879,,2731,4525
CG3280 (retired record),DRSC10356,50464,41622,56631,3329,3760
Ho (Heme oxygenase),DRSC14939,1.24e5,81805,,4811,3213
MED26 (Mediator complex subunit 26),DRSC17126,3.84e5,1.63e5,,15994,3016
MED26 (Mediator complex subunit 26),DRSC17147,69728,1.93e5,,1648,5808
MED26 (Mediator complex subunit 26),DRSC17148,98328,65232,,2043,1645
Ir60b (Ionotropic receptor 60b),DRSC04217,91444,54343,,1581,5376
CG9643,DRSC00722,1.10e5,55210,,1379,4535
B-H2 (BarH2),DRSC19335,43595,52486,,1142,2857
CG14518,DRSC14870,1.21e5,1.20e5,,4978,2868
rdgC (retinal degeneration C),DRSC11387,79923,1.45e5,,2407,4459

Only “firefly Hh reporter signal, replicate 2” (2 entries from above):
Tbh (Tyramine beta hydroxylase) [DRSC18723]	1.51e5
ppk30 (pickpocket 30) [DRSC15302]	81386
